Assay results from PubChem BioAssay AID588497 (NMMLSC, 2011).
Out of some 360,000 compounds screened, about 780 (0.22%) were called active. The inconclusive results got no clear call from the source; some entries with a clear call stand among them for comparison. Cut-off read from the data, not from the text of the source: active = inhibition above about 35% (passing the limit was not always enough); inconclusive = no clear call, values can overlap the other calls.

Test system: Botulinum neurotoxin type F light chain protease (Clostridium botulinum)
Assay: BoNT/F light chain protease inhibitors, primary screen, biochemical, flow cytometry, MLPCN library (AID 588497); note: plate controls were buffer without enzyme for full effect and enzyme alone for no effect
Conditions: Multiplex microsphere protease cleavage assay, at 10 µM, active compounds read high

Row | SMILES | inhibition
1 | COc1ccccc1N1CCN(C(=S)Nc2ccccc2)CC1 | inconclusive: 14.9%
2 | CCCn1c(SCC(=O)N2c3ccccc3CC2C)n[nH]c1=O (stereo not given) | inactive: -0.7%
3 | COCCN(C(=O)Nc1ccccc1OC)c1nc2ccccc2s1 | inconclusive: -24.1%
4 | Nc1c(C(=O)Nc2ccc(Cl)c(C(=O)O)c2)sc2nc3c(cc12)CCCC3 | inactive: -0.5%
5 | COC(=O)[C@@]1(Cc2ccc(F)cc2)[C@H]2c3cc(C(=O)N(C)C)n(CCO)c3C[C@H]2CN1C(=O)c1ccccc1 | inactive: -4.6%
6 | Clc1ccccc1-c1ncc(-c2ccccc2)o1 | inconclusive: -15.7%
7 | CCN(CC)C(=O)CCSc1nnc(-c2ccco2)o1 | inactive: -7.6%
8 | [O-][n+]1ccc(OCc2ccccc2)cc1 | inconclusive: -61.2%
9 | Cc1cc(=O)oc2cc(OCC(=O)Nc3nccs3)ccc12 | inactive: 1.1%
10 | Cc1nc(SCC(=O)NCc2ccccc2)c2oc3ccccc3c2n1 | inconclusive: 18.9%
11 | O=C(Nc1nnc(COc2ccccc2F)s1)Nc1ccccc1F | inconclusive: 14.5%
12 | CCOc1ccc(N2CC(=O)N/C2=N\c2nc(C)cc(C)n2)cc1 | inactive: -17.2%
13 | Cc1cnc(C(=O)N(c2ccc(N3CCOCC3)cc2)C2C(=O)Nc3ccccc3N=C2c2ccc(F)cc2)cn1 (stereo not given) | inactive: 5.4%
14 | CCOC(=O)C1CCCN(C(=O)CCn2nnnc2CN2CCOCC2)C1 (stereo not given) | inactive: 10.4%
15 | COc1ccc(OC)c(CNc2c(C=O)c(=O)[nH]c3ccccc23)c1 | inconclusive: 0.6%
16 | CN(C)C(=S)Nc1ccc(Br)cc1Cl | inconclusive: -103%
17 | O=C1C=CC(=O)C2C1C1(Cl)C(Cl)=C(Cl)C2(Cl)C1(Cl)Cl (stereo not given) | inactive: 0.4%
18 | CCN(CC(=O)Nc1ccc(OC)cc1)C(=O)Cc1ccsc1 | inconclusive: 3.7%
19 | Cc1ccc(NC(=O)c2cc(C)nc3ccccc23)c(C)c1 | inconclusive: -29.5%
20 | O=C(Nc1cccc2ccccc12)c1ccc([N+](=O)[O-])cc1 | inconclusive: -24.9%
21 | CSc1ncnc2c1ncn2CCCNCc1ccc2c(c1)OCO2 | inactive: -3.3%
22 | Cc1ccc(C)c(NC(=S)NCCc2cnc[nH]2)c1 | inconclusive: -7.9%
23 | Fc1ccccc1-c1nc2nc3ccccc3nc2n1CC1CCCO1 (stereo not given) | inconclusive: 18.2%
24 | CC(C)C(=O)Nc1ccc2c(c1)nc(CCN1CCN(c3ccccc3)CC1)n2C | inconclusive: -18.3%

2 entries from above, as a markdown table.

| Row | SMILES | inhibition |
| --- | --- | --- |
| 16 | CN(C)C(=S)Nc1ccc(Br)cc1Cl | inconclusive: -103% |
| 20 | O=C(Nc1cccc2ccccc12)c1ccc([N+](=O)[O-])cc1 | inconclusive: -24.9% |

Continued:

Row | SMILES | inhibition
25 | CCOC(=O)c1ccc(N=NN(C)C)cc1 | inconclusive: 23.5%
26 | COc1ccc(CNCCc2ccccc2)cc1OCC(N)=O | inactive: 3.2%
27 | Cc1ccsc1C(=O)OCc1nc2ccccc2c(=O)[nH]1 | inactive: 10.2%
28 | CCOC(=O)c1cc(-c2csc(-c3cccc(Cl)c3)n2)on1 | inconclusive: 14.5%
29 | O=c1cc(C(F)(F)F)nc(-c2ccccc2OC(F)(F)F)[nH]1 | inconclusive: -24.5%
30 | O=C(CSc1nnnn1Cc1ccccc1)c1ccccc1 | inactive: 10.2%
31 | CC(C(=O)NCCc1ccccc1)N1c2cccc3cccc(c23)S1(=O)=O (stereo not given) | inactive: 6.5%
32 | COc1ccc(C)cc1-n1cnc2sc(C)c(C)c2c1=O | inactive: -6.4%
33 | O=C(NCCCN1CCCC1=O)c1ccc2c(=O)n(Cc3ccco3)c(=S)[nH]c2c1 | inconclusive: -23.2%
34 | Nc1nc(NCC2CCCO2)nc(Nc2ccccc2F)c1[N+](=O)[O-] (stereo not given) | inconclusive: 70.2%
35 | CC(OC(=O)c1ccccc1CCc1ccccc1)C(N)=O (stereo not given) | inconclusive: -10%
36 | COc1ccc(C(C#N)N2N=C(C)CC2(C)C)cc1 (stereo not given) | inconclusive: -9.2%
37 | Cc1c(NS(=O)(=O)c2cc(C(=O)NCC3CCCO3)cc(Cl)c2Cl)c(=O)n(-c2ccccc2)n1C (stereo not given) | inconclusive: 9.9%
38 | O=C(CCCCn1ccc(=O)[nH]c1=O)Nc1ccc(C(=O)O)c(O)c1 | inactive: -3.6%
39 | O=C(CSc1ccc(-c2ccccn2)nn1)NCc1ccccc1 | inactive: 3%
40 | COc1ccccc1C(=O)Nc1nc(-c2ccc(S(=O)(=O)N3CCOCC3)cc2)cs1 | inactive: -23.7%
41 | Clc1ccccc1Cn1nnc2c(N3CCCC3)ncnc21 | inactive: -1.5%
42 | COC(=O)Cc1c(O)ccn(Cc2ccccc2OC)c1=O | inconclusive: -12.1%
43 | O=C(O)c1nccnc1C(=O)Nc1ccccc1N1CCOCC1 | inconclusive: 20.5%
44 | OC(CN1CCCCC1)Cn1c2ccc(Cl)cc2c2cc(Cl)ccc21 (stereo not given) | inconclusive: -22.6%
45 | CCc1ccc2[nH]c(=O)c(CN(CCCN3CCOCC3)C(=O)Nc3ccc(Cl)cc3)cc2c1 | inactive: -0.1%
46 | CNC(=S)N1C2CCCC1CC(NC(=O)c1ccc(F)cc1)C2 (stereo not given) | inconclusive: -28.6%
47 | CCCOc1cccc(NC(=O)c2cc(C)oc2C)c1 | inconclusive: -33.6%
48 | CN(C)CCOC(=O)NC12CC3CC(CC(C3)C1)C2 | inconclusive: -33.1%

Row | SMILES | inhibition
49 | Cc1ccc(N2C(=O)NC3(CCCCC3)C2=O)cc1 | inconclusive: 3.8%
50 | O=C(CN1CCN(S(=O)(=O)c2ccccc2)CC1)NC(=O)NCc1ccccc1 | inconclusive: -9.4%
51 | O=C(C1=C[C@H](c2ccc(Br)cc2)C[C@H](OCCCCO)O1)N1CCN(Cc2ccccc2)CC1 | inactive: -4.6%
52 | CCOC(=O)CNC(=O)N1CCCC(N(C)CCc2ccccc2)C1 (stereo not given) | inconclusive: -7%
53 | O=C1CSC(c2ccccc2F)N1 (stereo not given) | inconclusive: 6.4%
54 | CCCN1C2=NCCN2c2ccccc21 | inconclusive: 3.5%
55 | Cc1[nH]n(-c2ccccc2)c(=O)c1N=Nc1cccc([N+](=O)[O-])c1 | active: 42%
56 | COc1c2ccccc2nc2ccccc12 | inconclusive: -4.7%
57 | COc1cc(CNc2ncnc3c2ncn3[C@H]2CN(Cc3ccc(Cl)cc3)C[C@@H](CO)O2)cc(OC)c1OC | inactive: 3.8%
58 | O=C(CN1CCCCC1)Nc1nnc(-c2ccccc2)s1 | inactive: 4.7%
59 | Cc1cc(NC(=O)CN2C(=O)[C@@H]3[C@H](C2=O)[C@@H]2C[C@H]3C(Br)C2Br)no1 (stereo not given in full) | inconclusive: 191%
60 | Nc1cc(=O)[nH]c(SCC(=O)NC2CCCCCCC2)n1 | inactive: -2.9%
61 | CCOC1CCc2c(C)nc(N)nc2S1 (stereo not given) | inconclusive: -5.4%
62 | Cc1nc(/C(N)=N/OC(=O)c2c(-c3ccccc3Cl)noc2C)cs1 | inconclusive: -84.8%
63 | O=S(=O)(c1ccc(F)c(F)c1)N1CCN(S(=O)(=O)c2cccs2)CC1 | inactive: -6.5%
64 | Oc1c(-c2cc(-c3ccco3)[nH]n2)ccc2ccccc12 | inactive: -6.6%
65 | O=C(c1ccc(CN2CCc3ccccc3C2)cc1)N1CCc2ccccc2C1 | inconclusive: 4.9%
66 | CCCc1nnc(SCC(=O)N2CCCC2)n1CC1CCCO1 (stereo not given) | inconclusive: 11.7%
67 | CCOC(=O)c1c(C)oc(C)c(C(=O)OCC)c1=O | inconclusive: -11.5%
68 | Cc1cccc(C(=O)NNC(=O)c2ccc(O)cc2)c1 | inconclusive: -13.9%
69 | O=C1CC(Sc2ncn[nH]2)C(=O)N1c1ccccc1 (stereo not given) | inconclusive: -20.3%
70 | COc1cc2ccc(CC(N)=O)cc2cc1OC | inactive: -1%
71 | O=C(Nc1ccc(OCc2ccccc2)cc1)c1cccs1 | inconclusive: 5.6%
72 | COc1ccccc1-n1nnnc1SCC(=O)Nc1ccc(C)c(N)c1 | inconclusive: -2.2%

Row | SMILES | inhibition
73 | CC(C)(C)NC(=S)N1CCC(C(=O)c2ccc(Cl)cc2)CC1 | inconclusive: -14.2%
74 | O=c1c2c(-c3ccccc3)ccnc2[nH]n1-c1ccccc1 | inconclusive: -31.5%
75 | Cn1c2c(c(=O)n(C)c1=O)C(C(F)(F)F)(C(F)(F)F)N=C(c1ccccc1Cl)N2 | inactive: 2.2%
76 | COC(=O)C(NC(C)=O)(Nc1cc(C)ccn1)C(F)(F)F (stereo not given) | inconclusive: -44.6%
77 | CC12CC3CC(C)(C1)CC(Nc1nc(N4CCOCC4)nc4ccccc14)(C3)C2 | inconclusive: -46.8%
78 | CCOc1ccc(NC(=O)C(C)Oc2ccccc2C(=O)Nc2cccc(Cl)c2Cl)cc1 (stereo not given) | inconclusive: 12.6%
79 | Cc1nc2ccccn2c1-c1ccnn1S(=O)(=O)c1ccc(F)cc1 | inconclusive: 88.3%
80 | O=C(O)CCCNC(=O)/C(=C\C=C\c1ccccc1)NC(=O)c1ccccc1Cl | inactive: -2.4%
81 | COC(=O)Cc1cc(=O)n2c(nc3ccccc32)[nH]1 | inconclusive: 0.6%
82 | Cc1ccc(N2C(=O)CC(C)CC2=O)cc1 | inconclusive: -14.3%
83 | CN(Cc1ccccc1)S(=O)(=O)c1ccc(Cl)c(C(=O)NCCCN2CCCC2=O)c1 | inconclusive: -5.1%
84 | CCOC(=O)c1ccc(NC(=O)CSc2nnc(CNc3ccc(C)cc3)n2C)cc1 | inconclusive: -3.5%
85 | COc1ccc(C(=O)NCc2ccc3c(c2)CCO3)cc1 | inconclusive: -226%
86 | O=C(O)C1C2CCC(C2)C1C(=O)N1CCCC1 (stereo not given) | inconclusive: 23.3%
87 | CCN(C(=O)/C=C/c1ccccc1)C1CCCCC1 | inconclusive: -1.3%
88 | Cc1nnc2n1CCCCC2 | inconclusive: -10.1%
89 | Cc1ccc(C(=O)Nc2ncn[nH]2)cc1 | inconclusive: -5.6%
90 | COc1ccc(N(C)S(=O)(=O)c2cccc(C(=O)NCC3CCCO3)c2)cc1 (stereo not given) | inconclusive: -7%
91 | O=C(Cc1ccccc1)N1CCN(c2ccccc2F)CC1 | inconclusive: 0.8%
92 | CCOc1ccc2nc3ccc4[nH]onc4c3c2c1 | active: 49.5%
93 | N#Cc1cccc(NC(=O)CSc2ccc3c4c(cccc24)C(=O)c2ccccc2-3)c1 | active: 43.2%
94 | Cc1cc(OCC(=O)c2ccc(F)cc2)ccc1N1C(=O)CCC1=O | inconclusive: -7.4%
95 | NNC(=O)c1nn(-c2ccc(Cl)cc2)ccc1=O | inactive: -4.2%

Part of the list above, as tab-separated lines.
Row	SMILES	inhibition
79	Cc1nc2ccccn2c1-c1ccnn1S(=O)(=O)c1ccc(F)cc1	inconclusive: 88.3%
80	O=C(O)CCCNC(=O)/C(=C\C=C\c1ccccc1)NC(=O)c1ccccc1Cl	inactive: -2.4%
